Our source for the binding values is paper PMC7580532.

Test [1] has as its target T1, syntaxin-binding protein-2 (STXBP2), wild type (human (endogenous in PBMCs)) (UniProt Q15833).
T1 sequence: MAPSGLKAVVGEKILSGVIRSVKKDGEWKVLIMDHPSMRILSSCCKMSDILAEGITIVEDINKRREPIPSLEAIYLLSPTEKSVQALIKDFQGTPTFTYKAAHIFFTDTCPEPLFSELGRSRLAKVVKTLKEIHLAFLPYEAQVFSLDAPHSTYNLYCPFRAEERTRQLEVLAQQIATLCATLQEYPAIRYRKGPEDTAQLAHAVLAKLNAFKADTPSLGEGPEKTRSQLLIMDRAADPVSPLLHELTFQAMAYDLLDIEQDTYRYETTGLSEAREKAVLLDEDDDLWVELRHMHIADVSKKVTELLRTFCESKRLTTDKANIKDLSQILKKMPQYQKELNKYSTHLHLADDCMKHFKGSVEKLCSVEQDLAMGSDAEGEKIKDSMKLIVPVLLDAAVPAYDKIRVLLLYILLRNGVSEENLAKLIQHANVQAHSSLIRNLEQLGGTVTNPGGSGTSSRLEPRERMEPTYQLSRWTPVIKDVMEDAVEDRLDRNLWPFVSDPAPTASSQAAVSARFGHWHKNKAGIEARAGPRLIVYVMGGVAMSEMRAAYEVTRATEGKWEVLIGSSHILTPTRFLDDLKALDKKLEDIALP
Description: co-IP; endogenous STXBP2 immunoprecipitated from cell lysates (H.C. or patient) with anti-STXBP2 antibody coupled to agarose beads (Pierce CO-IP kit), 20 h at 4°C; lysis buffer 25 mM Tris, 150 mM NaCl, 1 mM EDTA, 5% glycerol, pH 7.4, 1% NP-40; five washes; elution at pH 2.8; Western blot. In general terms: In western blotting, separated proteins are transferred to a membrane and probed.

Test [2] deals with T2, STXBP2-R190C variant (p.Arg190Cys, c.568C>T) (human (endogenous in PBMCs)) (UniProt Q15833).
T2 sequence: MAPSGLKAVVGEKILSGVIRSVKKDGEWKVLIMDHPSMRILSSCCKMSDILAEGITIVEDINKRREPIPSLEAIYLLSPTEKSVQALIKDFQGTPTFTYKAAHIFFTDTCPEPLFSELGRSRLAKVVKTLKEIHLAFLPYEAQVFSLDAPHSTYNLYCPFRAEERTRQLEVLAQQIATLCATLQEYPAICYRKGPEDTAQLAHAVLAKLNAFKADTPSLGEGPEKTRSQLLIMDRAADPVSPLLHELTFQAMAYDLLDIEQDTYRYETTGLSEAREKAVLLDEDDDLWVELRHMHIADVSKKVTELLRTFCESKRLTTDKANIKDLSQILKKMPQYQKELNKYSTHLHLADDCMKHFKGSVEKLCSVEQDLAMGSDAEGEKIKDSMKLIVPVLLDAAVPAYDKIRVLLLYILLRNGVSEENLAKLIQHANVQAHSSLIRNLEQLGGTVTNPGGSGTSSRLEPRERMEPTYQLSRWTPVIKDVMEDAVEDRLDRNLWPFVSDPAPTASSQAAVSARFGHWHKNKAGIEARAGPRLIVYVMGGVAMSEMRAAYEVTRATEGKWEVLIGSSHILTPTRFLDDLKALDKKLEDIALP
Described as above.

No constants are given. Whether binding was seen depends on the method and setting. In cells and extracts the contact can be indirect. Some entries that bind do so weakly or less than the wild type.

B1: STX3 (protein, UniProt Q13277 1-289)
chain: MKDRLEQLKAKQLTQDDDTDAVEIAIDNTAFMDEFFSEIEETRLNIDKISEHVEEAKKLYSIILSAPIPEPKTKDDLEQLTTEIKKRANNVRNKLKSMEKHIEEDEVRSSADLRIRKSQHSVLSRKFVEVMTKYNEAQVDFRERSKGRIQRQLEITGKKTTDEELEEMLESGNPAIFTSGIIDSQISKQALSEIEGRHKDIVRLESSIKELHDMFMDIAMLVENQGEMLDNIELNVMHTVDHVEKARDETKKAVKYQSQARKKLIIIIVLVVVLLGILALIIGLSVGLN
On to B1, for which the binding entry in test [1] and in test [2] was “binds” throughout.

B2: syntaxin-11 (STX11) (protein, UniProt O75558 1-287)
chain: MKDRLAELLDLSKQYDQQFPDGDDEFDSPHEDIVFETDHILESLYRDIRDIQDENQLLVADVKRLGKQNARFLTSMRRLSSIKRDTNSIAKAIKARGEVIHCKLRAMKELSEAAEAQHGPHSAVARISRAQYNALTLTFQRAMHDYNQAEMKQRDNCKIRIQRQLEIMGKEVSGDQIEDMFEQGKWDVFSENLLADVKGARAALNEIESRHRELLRLESRIRDVHELFLQMAVLVEKQADTLNVIELNVQKTVDYTGQAKAQVRKAVQYEEKNPCRTLCCFCCPCLK
Turning to B2, the binding entry in test [1] and in test [2] was “binds” in each case.
